# Assay results taken from article PMC12040169 (PLOS Biology, 2025).
# Some of the results follow.
# Test system: T1, CTL2-GFP (C. trachomatis L2/434/Bu, GFP-expressing)
# T1 construct: L2/434/Bu, GFP-expressing
# Parameters: species or system HeLa; Intracellular C. trachomatis growth in HeLa cells, bulk GFP fluorescence relative to DMSO
# Settings: bulk GFP, single well; 28.5 h, 10 µM; inhibitor
row,Structure (SMILES),% of control remaining [%]
1,CC(C)(C)c1ccc(-c2cc(C3CCNCC3)n[nH]2)cc1 [CBK270240],95.358
2,FC(F)(F)C1(NC2(C(Cl)(Cl)Cl)Oc3ccccc3O2)Oc2ccccc2O1 [CBK265544],114.315
3,CS(=O)(=O)Nc1ccc2c(ccn2Cc2ccccc2)c1 [CBK159527],89.2993
4,O=C(C(Cc1ccccc1)c1ccccc1)N1CCC2(CCN(CCCCOc3ccccc3)C2)C1 (centres unmarked) [CBK160643],119.489
5,Cc1ccnn1CCC(=O)N1CCCC1c1nc2ccccc2[nH]1 (centres unmarked) [CBK285178],78.1332
6,CC(C)c1ccccc1OCC(=O)OCCN1C(=O)c2ccccc2C1=O [CBK264841],140.326
7,N#C/C(=C\c1ccc(N2CCN(c3ccc(F)cc3)CC2)c([N+](=O)[O-])c1)c1nn(-c2ccccc2)c(N)c1C#N [CBK267927],142.469
8,CCN(C(C)=O)c1nc(CN2CCOC(c3ccc(F)cc3)C2)cs1 (centres unmarked) [CBK306213],120.209
9,CCN(CC)CCNC(=O)/C(=N\O)c1ccccc1 [CBK288408],109.954
10,CCOC(=O)c1[nH]c2ccccc2c1NC(C)=O [CBK086755],114.594
11,CCN(CC)C(=O)CN1CCCN(c2cc(Oc3ccc(OC)c(OC)c3)ncn2)CC1 [CBK083359T],105.347
12,C=CCN1C(=O)CC2(C1=O)C(=O)N(Cc1nnc(-c3ccc(C)cc3)o1)c1ccc(Cl)cc12 (centres unmarked) [CBK075434],171.105
13,O=C(Nc1ccc([C@@H](O)[C@H]2COCC(=O)N2Cc2cccnc2)cc1)c1ccccc1 [CBK289319],171.14
14,O=C(O)c1ccccc1-c1nc(-c2ccccc2F)no1 [CBK268022],108.597
15,Cc1ccnc(NS(=O)(=O)c2ccc(NS(=O)(=O)c3ccc(F)cc3)cc2)n1 [CBK051024],122.599
16,CC(C)N1CCC(CNC(=O)Cn2ccc3ccc(F)cc32)CC1 [CBK282571],124.415
17,CCc1nc2c(OCCOc3ccccc3)cccn2c1N(C=O)CC(=O)N(C)C [CBK147510],106.657
18,c1coc(CNc2ncc(-c3ccc(N4CCOCC4)cc3)n3ccnc23)c1 [CBK091220],68.1687
19,Cc1cc(O)c(C(C)C)cc1N1C(=O)c2ccc([N+](=O)[O-])cc2C1=O [CBK115323],124.456
20,c1cnc(-c2nnn[nH]2)c(-c2ccc(COc3ccc4c(c3)OCO4)cc2)n1 [CBK050812],100
21,OC(COc1ccccc1F)CSc1nc(NC2CC2)c2ccccc2n1 (centres unmarked) [CBK297902],141.258
22,Cn1c(=O)c2c(nc(NCc3ccc4c(c3)OCO4)n2Cc2cccc(Cl)c2)n(C)c1=O [CBK074359],83.5783
23,Cc1ccc(C2(CN3CCN(Cc4cnn(C)c4)CC3)CC2)cc1 [CBK282480],137.067
24,CN(C)CCCNc1ccc(-c2n[nH]c(=O)c3ccccc23)cc1[N+](=O)[O-] [CBK266200],159.888
25,CC(C)(C)OC(=O)NCCc1ccc(Nc2cc(-c3ccsc3)ncn2)cc1 [CBK090958],116.756
26,COc1cccc(CN2CCC3(CC2)c2[nH]c4ccc(OCc5ccccc5)cc4c2CCN3C=O)c1 [CBK040462],106.469

row,Structure (SMILES),% of control remaining [%]
1,Cc1cc(C)c(S(=O)(=O)Nc2ccc(S(=O)(=O)Nc3ccc(Cl)cc3Cl)cc2)c(C)c1 [CBK266022],54.4082
2,COc1ccc(-c2cc(C(=O)NCc3ccc(N)cc3)cnc2-c2cccc(C)c2)cc1 [CBK036728],175.873
3,CC(=O)c1ccc(O)c2ncccc12 [CBK015821],127.653
4,Cc1cc(C(=O)NCc2ccnc(N3CCOCC3)c2)c(C)n1-c1cccc(Cl)c1 [CBK298301],116.177
5,CC(C)(C)NC(=O)CN1CCC(c2ccc(F)cc2)CC1 [CBK283629],117.533
6,Cc1cc(CN(C)Cc2c(C)nc3c(C)cccn23)n[nH]1 [CBK281716],108.867
7,COc1cccc(C2C(C(=O)c3ccc(Br)cc3)=C(O)C(=O)N2CCN2CCOCC2)c1OC (centres unmarked) [CBK264855],126.349
8,Nc1ncnc2c1cnn2[C@H]1C[C@@H](O)[C@@H](CO)O1 [CBK201325],149.762
9,O=C1COc2ccccc2C/C=C/CC2(CCN(C(=O)CCn3ccnc3)CC2)CN1 [CBK292131],115.138
10,O=C(Nc1sc2c(c1C(=O)O)CCC2)c1ccco1 [CBK152436],118.322
11,NCC1CCN(c2cc(C(F)(F)F)c3scc(C(=O)NCCC4=CCCCC4)c3n2)CC1 [CBK028475],113.201
12,O=C(NC1CCCOC1)c1cc(-c2ccc(F)cc2)no1 (centres unmarked) [CBK283141],96.4398
13,CN(CCCc1cc(-c2cccc(F)c2)n[nH]1)C(=O)c1cnn(C)c1 [CBK305745],97.9818
14,CN(Cc1nnc(C2CC2)n1C)C1CCN(CCCc2cn[nH]c2)C1 (centres unmarked) [CBK305305],112.337
15,O=C(NC1(c2ccccc2)CC1)c1cccc(-n2cnnc2)c1 [CBK282779],73.4334
16,CSc1ncc(C(=O)N2CCC(N3CCCC(O)C3)CC2)cn1 (centres unmarked) [CBK307055],105.25
17,COc1cc(/C=N/NC(=O)CSc2n[nH]c(=O)[nH]c2=O)ccc1O [CBK263513],94.8153
18,Cn1nccc1CN1CCOC(c2nc(C(C)(C)C)cs2)C1 (centres unmarked) [CBK304690],122.329
19,O=C(CSc1n[nH]c(=O)n1C1CC1)NCCCSc1ccccc1 [CBK295620],140.872
20,Cn1ccc(NC(=O)c2cccc(S(=O)(=O)N3CCCC3)c2)n1 [CBK306032],102.019
21,c1ccc2c(c1)CC(Oc1cncc(N3CCNCC3)n1)C2 [CBK000242G],110.627
22,O=C(/C=C/c1cccnc1)Nc1cncc(OC2CCNCC2)n1 [CBK038919T],113.651
23,CCOC(=O)c1sc(-c2ccccc2)nc1C [CBK074204],108.232
24,Nn1c(SCC(=O)Nc2ccc3c(c2)OCO3)nnc1-c1ccccn1 [CBK267550],104.961
25,Cc1nccn1CC1(O)CCN(C(=O)CCc2ccccc2F)CC1 [CBK284689],132.216
26,CCOc1ccc(-c2nnn(CC(N)=O)n2)cc1 [CBK068283],108.195

row,Structure (SMILES),% of control remaining [%]
1,CC(C)(C)OC(=O)N1CCN(c2cc(NCc3ccccc3)ncn2)CC1 [CBK000137],97.5818
2,CC(C)c1ccc(C(C)NC(=O)Cn2cc(C(=O)Nc3ccc(F)cc3)ccc2=O)cc1 (centres unmarked) [CBK286049],118.649
3,CCOc1ccc(C)cc1S(=O)(=O)NCCc1c(C)[nH]c2c(Cl)cccc12 [CBK268859],141.714
4,NC(=O)CN1C(=O)CO[C@H]2CN(Cc3cnc4ccccc4c3)C[C@H]21 [CBK289242],141.112
5,COCCn1c(CN2CCC(Cc3ccccc3)CC2)nc2c1c(=O)n(C)c(=O)n2C [CBK269378],149.835
6,COc1ccccc1N(CC(O)CN1C(C)CCCC1C)S(=O)(=O)c1ccccc1 (centres unmarked) [CBK265585],127.136
7,CNC(=S)NCc1ccncc1 [CBK020033],110.16
8,COc1ccc(C(C)C)cc1-c1cncc(NCC(c2cccnc2)N(C)C)n1 (centres unmarked) [CBK037132],91.4399
9,COCCNC(=O)N[C@H](Cc1ccccc1)C(=O)O [CBK286667],129.715
10,CCn1c(C(C)C)nc2cc(NC(=O)Cc3c(C)noc3C)ccc21 [CBK281527],131.897
11,O=C(O)c1cc(NC(=O)c2ccccc2[N+](=O)[O-])cc(C(=O)O)c1 [CBK262135],100
12,COc1ccc(S(=O)(=O)N2CCC(C(=O)N(C)C(c3cnccn3)c3ccccc3C)CC2)cc1 (centres unmarked) [CBK060210],132.727
13,CCn1nc(C)c(C(C)NC(=O)c2ccn(C(F)F)n2)c1C (centres unmarked) [CBK281534],145.578
14,CC(C)c1ccc(/C=C/C(=O)NCc2ccc(S(N)(=O)=O)cc2)cc1 [CBK161511],120.238
15,Nc1[nH]ncc1-c1nnc(Nc2ccc3c(c2)OCO3)o1 [CBK288537],118.55
16,COc1ccc(C(C)C)cc1-c1cncc(N(C)CCN(C)C)n1 [CBK065364],119.931
17,NC(=O)[C@H]1C[C@@H](O)[C@H](O)[C@H]2[C@@H]1S/C(=N\c1ccccc1)N2Cc1cccs1 [CBK288944],105.554
18,Cc1c(-c2cc(-c3cnn(C)c3C)[nH]n2)cnn1C [CBK288013],124.534
19,FC(F)(F)c1cccc(CN2CCN(CCc3ccccc3)CC2)c1 [CBK126421],105.208
20,CC(C)OC(=O)c1nnn(-c2nonc2N)c1CN1CCCCCC1 [CBK027601],117.586
21,CCOC(=O)c1c(NC(=O)NCc2cccnc2)sc2c1CCC2 [CBK307585],143.439
22,COc1cc(-c2ccc(Nc3cccnc3)nc2)cc(OC)c1OC [CBK037704],217.929
23,O=C(CO)N1CC2(CCN(CCS(=O)(=O)c3ccccc3)CC2)c2ccccc21 [CBK131505],94.9364
24,COc1cccc(OCC(=O)Nc2ccccc2C(=O)O)c1 [CBK286819],124.691
25,COc1ccc(C2OCCN2C(C)=O)cc1 (centres unmarked) [CBK004536],121.906

# In the list so far, 12 contain an aryl methoxy group.
row,Structure (SMILES),% of control remaining [%]
11,CCN(CC)C(=O)CN1CCCN(c2cc(Oc3ccc(OC)c(OC)c3)ncn2)CC1 [CBK083359T],105.347
26,COc1cccc(CN2CCC3(CC2)c2[nH]c4ccc(OCc5ccccc5)cc4c2CCN3C=O)c1 [CBK040462],106.469
2,COc1ccc(-c2cc(C(=O)NCc3ccc(N)cc3)cnc2-c2cccc(C)c2)cc1 [CBK036728],175.873
7,COc1cccc(C2C(C(=O)c3ccc(Br)cc3)=C(O)C(=O)N2CCN2CCOCC2)c1OC (centres unmarked) [CBK264855],126.349
17,COc1cc(/C=N/NC(=O)CSc2n[nH]c(=O)[nH]c2=O)ccc1O [CBK263513],94.8153
6,COc1ccccc1N(CC(O)CN1C(C)CCCC1C)S(=O)(=O)c1ccccc1 (centres unmarked) [CBK265585],127.136
8,COc1ccc(C(C)C)cc1-c1cncc(NCC(c2cccnc2)N(C)C)n1 (centres unmarked) [CBK037132],91.4399
12,COc1ccc(S(=O)(=O)N2CCC(C(=O)N(C)C(c3cnccn3)c3ccccc3C)CC2)cc1 (centres unmarked) [CBK060210],132.727
16,COc1ccc(C(C)C)cc1-c1cncc(N(C)CCN(C)C)n1 [CBK065364],119.931
22,COc1cc(-c2ccc(Nc3cccnc3)nc2)cc(OC)c1OC [CBK037704],217.929
24,COc1cccc(OCC(=O)Nc2ccccc2C(=O)O)c1 [CBK286819],124.691
25,COc1ccc(C2OCCN2C(C)=O)cc1 (centres unmarked) [CBK004536],121.906
